Source: the supplement of paper PMC9254222
The full ranking holds about 1,100 compounds; the median of “Wnt reporter firefly/Renilla luciferase ratio relative to plate median” is about 1.1, and the highest 2% start at about 1.6. The list shows a part of the results, in another mix than the full data.

Test system: HEK293T (UBE3A T485A transfected, BAR Wnt reporter)
Experiment: Wnt reporter firefly/Renilla luciferase ratio relative to plate median (fold (linear ratio)); higher = more Wnt/beta-catenin reporter activation
Conditions: 24 h
Summary of the method: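 Chemicals at 0.01–100 uM were left on transfected HEK293T cells for 24 h, after a four-hour wait following transfection. The cells held a BAR firefly luciferase Wnt reporter, TK-Renilla and an expression plasmid. Wnt activity, as the firefly/Renilla ratio from a Dual-Glo luciferase readout, and cell health, as raw Renilla, were median-centred within each plate. Results average four biological replicates.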

SMILES	Wnt reporter firefly/Renilla luciferase ratio (concentration: 0.1 uM)	Wnt reporter firefly/Renilla luciferase ratio (concentration: 1 uM)	Wnt reporter firefly/Renilla luciferase ratio (concentration: 10 uM)	Wnt reporter firefly/Renilla luciferase ratio (concentration: 100 uM)	Wnt reporter firefly/Renilla luciferase ratio (concentration: 0.01 uM)
c1ccc(N=Nc2ccccc2)cc1 [Azobenzene]	1.35	1.05	1.38	1.1	
Cc1nn(-c2cc(NS(C)(=O)=O)c(Cl)cc2Cl)c(=O)n1C(F)F [Sulfentrazone]	0.917	1.08	1.09	0.657	0.946
CCCCCCCCn1sccc1=O [Octhilinone]	1.02	1.15	1.07		
Oc1ccc(C(c2ccc(O)cc2)(C(F)(F)F)C(F)(F)F)cc1 [Bisphenol AF]	0.887	1.08	0.718	0.605	
O=Cc1ccco1 [Furfural]	0.772	0.902	0.924	1.01	
COCC(=O)N(c1c(C)cccc1C)C(C)C(=O)OC (centres undefined) [Metalaxyl]	1.06	0.996	1.2	1.05	1.26
COc1cc(C=O)cc2c1[C@H](COC(N)=O)[C@]1(OC(C)=O)ON2C[C@H]2[C@@H]1N2C(C)=O	0.42				
CCOC(=O)c1ccccc1C(=O)OCC [Diethyl phthalate]	0.841	1.05	1.21	1.26	
Clc1ccccc1-c1nnc(-c2ccccc2Cl)nn1 [Clofentezine]	1.25	0.999	1.19	1.59	1.31
CCC(C)(NC(=O)c1cc(Cl)c(C)c(Cl)c1)C(=O)CCl (centres undefined) [Zoxamide]	1.45	1.24	1.32		1.47
Oc1ccccc1Cl [2-Chlorophenol]	0.951	0.944	1.24	1.52	
O=C(O)C(Cl)(Cl)Cl [Trichloroacetic acid]	1.28	1.04	1.09	1.37	
Nc1c(Cl)c(Cl)nc(C(=O)O)c1Cl [Picloram]	1.47	1	1.13	1.28	0.972
CCN1CCC2(CC1)COc1cc3c(cc12)N(C(=O)c1ccc(-c2ccc(-c4nnc(C)o4)cc2C)cc1)CC3.Cl	1.26	0.778	0.416		
CCOP(=S)(OCC)SCn1c(=O)oc2cc(Cl)ccc21 [Phosalone]	1.45	1.27	1.03	0.607	1.62
CCCCCOC(=O)c1ccccc1C(=O)OCCCCC [Dipentyl phthalate]	1.06	1.36	1.14	1.15	
Oc1ccc(Cl)cc1Cl [2,4-Dichlorophenol]	1.06	1.15	1.36	1.47	
CC(C)(c1ccccc1)c1ccc(O)c(C(C)(C)c2ccccc2)c1 [2,4-Bis(1-methyl-1-phenylethyl)phenol]	0.975	1.08	1.09	0.94	
COc1cnc(OC)n2nc(NS(=O)(=O)c3c(OCC(F)F)cccc3C(F)(F)F)nc12 [Penoxsulam]				1.75	
CC(C)(OO)c1ccccc1 [Cumene hydroperoxide]	0.958	0.714	0.747	0.824	
COc1ccc(C)cc1N [2-Methoxy-5-methylaniline]	1.14	1.31	1.26	1.29	
CCOC1Oc2ccc(OS(C)(=O)=O)cc2C1(C)C (centres undefined) [Ethofumesate]	0.973	1.03	1.14	1.86	1.05

SMILES	Wnt reporter firefly/Renilla luciferase ratio (concentration: 0.1 uM)	Wnt reporter firefly/Renilla luciferase ratio (concentration: 1 uM)	Wnt reporter firefly/Renilla luciferase ratio (concentration: 10 uM)	Wnt reporter firefly/Renilla luciferase ratio (concentration: 100 uM)	Wnt reporter firefly/Renilla luciferase ratio (concentration: 0.01 uM)
CCC1(c2ccccc2)C(=O)N=C([O-])NC1=O.[Na+] (centres undefined) [Phenobarbital sodium]	1.14	1.18	1.27	1.16	
CNC(=O)Oc1cccc2ccccc12 [Carbaryl]	1.18	1.07	0.714	0.629	0.987
C/C(=N\C#N)N(C)Cc1ccc(Cl)nc1 [Acetamiprid]	0.96	0.904	1.08	1.18	1.26
O=C(O)C1C2CCC(O2)C1C(=O)O (centres undefined) [Endothal]	1.14	1.01	1.23		
O=C(Nc1ccc2[nH]ccc2c1)c1cc2cc(F)ccc2n1Cc1cccc(F)c1	0.948	0.899	0.16		
CCOP(=S)(OCC)Oc1nc(Cl)c(Cl)cc1Cl [Chlorpyrifos]	1.11	1.01	0.926	1.12	
C[C@]12CCC(=O)C=C1CC[C@@H]1[C@@H]2CC[C@]2(C)C(=O)CC[C@@H]12 [4-Androstene-3,17-dione]	1.04	1.01	1.12	0.219	
C=CC(=O)OCCCCCC(C)C [Isooctyl acrylate]	1	1.13	1.08	1.03	
Cc1c(F)c(F)c(COC(=O)C2C(/C=C(\Cl)C(F)(F)F)C2(C)C)c(F)c1F (centres undefined) [Tefluthrin]	1.35	1.02	1.26	0.969	1.27
CC(C)C1(C)N=C(c2ncccc2C(=O)O)NC1=O (centres undefined) [Imazapyr]	1.29	1.04	1.09	1.24	1.14
ClCCOCCCl [Bis(2-chloroethyl) ether]	1.05	0.921	1.24	1.38	
COP(=S)(OC)Oc1ccc([N+](=O)[O-])cc1 [Methyl parathion]	1.05	1.21	1.02	0.89	1.23
O=[N+]([O-])c1ccc(O)c([N+](=O)[O-])c1 [2,4-Dinitrophenol]	1.04	1.12	0.963	0.34	
Cc1nc(N(C)C)nc(OC(=O)N(C)C)c1C [Pirimicarb]	1.15	1.14	0.828	0.882	1.19
COP(=O)(OC)O/C(C)=C/C(=O)N(C)C [Dicrotophos]	1.12	1.1	0.957	1.09	1.29
CCc1cccc(C)c1N(C(=O)CCl)C(C)COC (centres undefined) [Metolachlor]	1.6	0.921	0.833	0.28	0.768
CNC(=O)/C=C(\C)OP(=O)(OC)OC [Monocrotophos]	1.1	1.22	1.06	1.12	0.971
[Cl-].[Cl-].[Hg+2] [Mercuric chloride]	1.21	1.07	1.69		
N=C(Nc1ccccc1)Nc1ccccc1 [1,3-Diphenylguanidine]	1.06	1.28	0.977	1.02	
Nc1ccc(Oc2ccc(N)cc2)cc1 [4,4'-Oxydianiline]	1.08	1.16	0.948	1.33	
CCCN(CC)CC1COC2(CCC(C(C)(C)C)CC2)O1 (centres undefined) [Spiroxamine]	0.9	1.01	1.13	0.569	0.79
Cl[C@H]1[C@H](Cl)[C@@H](Cl)[C@H](Cl)[C@@H](Cl)[C@@H]1Cl [beta-Hexachlorocyclohexane]	1.05	0.913	1.12	1.03	

Entries shown so far that contain a CF3 group, in the order listed:
SMILES	Wnt reporter firefly/Renilla luciferase ratio (concentration: 0.1 uM)	Wnt reporter firefly/Renilla luciferase ratio (concentration: 1 uM)	Wnt reporter firefly/Renilla luciferase ratio (concentration: 10 uM)	Wnt reporter firefly/Renilla luciferase ratio (concentration: 100 uM)	Wnt reporter firefly/Renilla luciferase ratio (concentration: 0.01 uM)
Oc1ccc(C(c2ccc(O)cc2)(C(F)(F)F)C(F)(F)F)cc1 [Bisphenol AF]	0.887	1.08	0.718	0.605	
COc1cnc(OC)n2nc(NS(=O)(=O)c3c(OCC(F)F)cccc3C(F)(F)F)nc12 [Penoxsulam]				1.75	
Cc1c(F)c(F)c(COC(=O)C2C(/C=C(\Cl)C(F)(F)F)C2(C)C)c(F)c1F (centres undefined) [Tefluthrin]	1.35	1.02	1.26	0.969	1.27

Later entries

SMILES	Wnt reporter firefly/Renilla luciferase ratio (concentration: 0.1 uM)	Wnt reporter firefly/Renilla luciferase ratio (concentration: 1 uM)	Wnt reporter firefly/Renilla luciferase ratio (concentration: 10 uM)	Wnt reporter firefly/Renilla luciferase ratio (concentration: 100 uM)	Wnt reporter firefly/Renilla luciferase ratio (concentration: 0.01 uM)
Cc1ccccc1COC1CC2(C(C)C)CCC1(C)O2 (centres undefined) [Cinmethylin]	0.993	1.05	1.27	1.3	0.992
Fc1ccc(Oc2ccnc3cc(Cl)cc(Cl)c23)cc1 [Quinoxyfen]	1.1	0.954	1.01	0.751	0.835
CN1CSC(=S)N(C)C1 [Dazomet]	1.48	1.03	0.788	0.472	1.4
CCc1ccc(C(=O)NN(C(=O)c2cc(C)cc(C)c2)C(C)(C)C)cc1 [Tebufenozide]	1.01	1.12	1.19	0.567	1.05
Cc1ccc(O)c(C)c1 [2,4-Dimethylphenol]	0.977	0.844	1.08	1.33	
c1ccc(C2CO2)cc1 (centres undefined) [Styrene oxide]				1.71	
ClC1=C(Cl)[C@]2(Cl)[C@H]3[C@H]([C@@H]4C=C[C@H]3C4)[C@@]1(Cl)C2(Cl)Cl [Aldrin]	1.2	0.895	1.15	1.43	
CCC(C)Nc1c([N+](=O)[O-])cc(C(C)(C)C)cc1[N+](=O)[O-] (centres undefined) [Butralin]	1.04	1.17	1.39	1.3	1.33
CC(C)N1C(=O)c2ccccc2NS1(=O)=O [Bentazone]	0.947	0.964	0.949	0.329	1.46
CC(COc1ccc(Oc2ccccc2)cc1)Oc1ccccn1 (centres undefined) [Pyriproxyfen]	0.977	1.04	1.03	0.55	1.12
ClC1=C(Cl)C2(Cl)C3C4OC4C(Cl)C3C1(Cl)C2(Cl)Cl (centres undefined) [Heptachlor epoxide]	1.18	1.23	1.06	1.5	
ClC(Cl)c1ccccc1 [Benzal chloride]	1.18	1.06	1.22	1.46	
CON=C(C(=O)OC)c1ccccc1COc1ccccc1C [Kresoxim methyl]	1.2	1.07	0.405	0.618	0.927
O=C(O)CNCP(=O)(O)O [Glyphosate]				1.75	
COC(=CC(N)=O)C(C)C(C=Cc1csc(-c2csc(C(C)C=CC=CC(C)C)n2)n1)OC (centres undefined) [Myxothiazol]	0.921	0.539	0.492		1.41
CCC(C)(C)c1ccc(O)cc1 [4-(2-Methylbutan-2-yl)phenol]	0.958	0.879	0.94	0.901	
O=C(Nc1ccccc1)Nc1ccnc(Cl)c1 [Forchlorfenuron]	1.16	0.957	0.694		1.1
CN(C)C(=O)Nc1ccc(Cl)cc1 [Monuron]	0.888	0.901	1.09	1.04	
Cl[C@H]1[C@H](Cl)[C@@H](Cl)[C@@H](Cl)[C@H](Cl)[C@H]1Cl [Lindane]	1.12	1.21	1.14	1.46	1.12
CC(Oc1cccc(Cl)c1)C(=O)O (centres undefined) [Cloprop]	1.51	1.12	1.28	1.45	1.31
CCC(=O)O[C@H]1CC[C@H]2[C@@H]3CCC4=CC(=O)CC[C@]4(C)[C@H]3CC[C@]12C [Testosterone propionate]	1.18	1.15	1.14	0.787	
